Reference: PubChem BioAssay AID1259308 (NCATS, 2017)

Test: 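Genes whose loss raises luciferase production in HEK293 cells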 (primary screen)
Cells: human HEK293 embryonic kidney cells stably expressing firefly luciferase (HEK-CMV-Luc2-Hygro)
Knock-down reagent: single siRNA against human genes, 0.8 pmol siRNA per well
Duration: 72 h
Read-out: 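Luciferase light (ONE-Glo) measured on one replicate plate set and viability (CellTiter-Glo) on the other, scaled to a negative control siRNA, with robust z-scores and luciferase per cell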
Direction: total luciferase, z-score and total luciferase, % of control: higher = more reporter protein produced
Rule for the call: 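Active when the median/MAD z-score for overall luciferase is greater than 3; a gene was taken forward for validation with new siRNAs if at least two of its three siRNAs passed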
Meaning of the calls: active = raised luciferase; inactive = no rise
Shown is an unselected part of about 59,000 reagents. Over the whole deposit, about 1,510 (2.6%) were called active. 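Calls use total luciferase alone and ignore viability, so some active siRNAs may act by altering cell number.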 Reagents against one gene are numbered here. Not all columns of the deposit are shown.

For GNAI2 #1, what was measured?
total luciferase, z-score: -0.398; total luciferase, % of control: 74; call: inactive

How did the screen score GNAI2 #2?
total luciferase, z-score: -0.406; total luciferase, % of control: 73.8; call: inactive

What did the screen give for GNAI2 #3?
total luciferase, z-score: -0.956; total luciferase, % of control: 62.9; call: inactive

Which result is listed for USPL1 #1?
total luciferase, z-score: 3.14; total luciferase, % of control: 144; call: active

What did the screen give for USPL1 #2?
total luciferase, z-score: 2.43; total luciferase, % of control: 130; call: inactive

How did the screen score USPL1 #3?
total luciferase, z-score: 2.96; total luciferase, % of control: 141; call: inactive

With RRP12 #1, what does the deposit list?
total luciferase, z-score: -0.822; total luciferase, % of control: 65.5; call: inactive

With RRP12 #2, how do the results read?
total luciferase, z-score: -1.08; total luciferase, % of control: 60.4; call: inactive

How did the screen score RRP12 #3?
total luciferase, z-score: 1.14; total luciferase, % of control: 105; call: inactive

For XKR7 #1, what does the deposit list?
total luciferase, z-score: 0.181; total luciferase, % of control: 85.5; call: inactive

With XKR7 #2, how do the results read?
total luciferase, z-score: -0.287; total luciferase, % of control: 76.2; call: inactive

With XKR7 #3, what was measured?
total luciferase, z-score: 0.849; total luciferase, % of control: 98.8; call: inactive

For PGPEP1 #1, how do the results read?
total luciferase, z-score: 1.04; total luciferase, % of control: 103; call: inactive

With PGPEP1 #2, what does the deposit list?
total luciferase, z-score: -0.68; total luciferase, % of control: 68.4; call: inactive

With PGPEP1 #3, what does the deposit list?
total luciferase, z-score: 0.6; total luciferase, % of control: 93.8; call: inactive

What did the screen give for SH3TC1 #1?
total luciferase, z-score: 3.43; total luciferase, % of control: 150; call: active

For SH3TC1 #2, what was measured?
total luciferase, z-score: -0.104; total luciferase, % of control: 79.8; call: inactive

For SH3TC1 #3, how do the results read?
total luciferase, z-score: 0.349; total luciferase, % of control: 88.8; call: inactive

Which result is listed for ETV2 #1?
total luciferase, z-score: 1.59; total luciferase, % of control: 114; call: inactive

What did the screen give for ETV2 #2?
total luciferase, z-score: -1.8; total luciferase, % of control: 46; call: inactive

What did the screen give for ETV2 #3?
total luciferase, z-score: 3.98; total luciferase, % of control: 161; call: active

An excerpt from above, showing only “total luciferase, z-score”:
USPL1 #3	2.96
RRP12 #1	-0.822
RRP12 #2	-1.08
